Measurements reported in PubChem BioAssay AID686943 (Drosophila RNAi Screening Center, 2013)

Assay: 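Search across the genome for regulators of signalling from receptor tyrosine kinase to ERK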 (primary screen)
Cell system: Drosophila S2R+ haemocyte-like cells expressing YFP-tagged ERK (Rolled)
Reagents: long dsRNA against Drosophila genes
Challenge: insulin stimulation versus unstimulated cells; dose and duration not given
Measurement: 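Per-plate z-scores of phospho-ERK immunostaining normalised to YFP-tagged ERK, measured with and without insulin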
Scale: replicate 1, z-score of dpERK with insulin: higher = more active ERK per ERK-YFP after insulin
The screen tested about 23,000 reagents; this is a random part of those that have a named target and a result. 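Extra replicates exist only for a retested subset of genes; insulin dose and duration not given; both raised and lowered dpERK matter.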 Reagents against one gene are numbered here. A plus sign joins genes that one reagent is predicted to hit. Further read-outs or replicates are left out here. Not stated in the record: the amount of reagent, the time to read-out.

replicate 1, z-score of dpERK with insulin, by gene knocked down and reagent
dpr10: #1 0.86; #2 0.74; #3 0.19; #4 0.17
Pc: #1 -3.07
Xpac: #1 -0.65
CG5860: #1 -0.47
CG9269: #1 0.58
Cen: #1 0.95
CG14932: #1 -1.99
mtTFB2: #1 0.67
lncRNA:bxd: #1 0.5
CG12862: #1 -0.22
kel: #1 0.71
Smyd4-3: #1 0.1
CG13008: #1 -0.06; #2 0.03
CG42854: #1 -0.75
Lnk: #1 -1.98
Or33b: #1 -0.12
Vha100-4: #1 -0.01
CG16879 (retired record): #1 0.91; #2 0.06
GluProRS: #1 0.29
CG9316: #1 0.15
SkpE: #1 0.05
Su(var)3-7: #1 0.39
CG17068: #1 0.65
INPP5E: #1 0.95
CG33288: #1 -0.11
l(2)efl: #1 0.36
CG43062: #1 0.13

Not a retest: entries from further up.
replicate 1, z-score of dpERK with insulin, by gene knocked down and reagent
dpr10: #2 0.74; #3 0.19; #4 0.17
Pc: #1 -3.07
Xpac: #1 -0.65
CG5860: #1 -0.47
CG9269: #1 0.58
Cen: #1 0.95
CG14932: #1 -1.99

The list goes on.
replicate 1, z-score of dpERK with insulin, by gene knocked down and reagent
CG15412: #1 0.01
CG12158: #1 -0.79
Ste:CG33238 + Ste:CG33241 + Ste:CG33236 + 11 more: #1 -0.12; #2 0.76
Mob4: #1 -0.81
Oatp58Dc: #1 0.45
CG17329: #1 -0.42
CG8960: #1 -0.49
CG1360: #1 0.57
CG4586: #1 -0.74
ItgaPS4: #1 -0.05
lncRNA:CR34024: #1 -0.1
Fancm: #1 -0.02
Nepl4: #1 -0.15
GNBP2: #1 0.56
Akh: #1 -0.28
CG10029: #1 2.6
CG15084: #1 0.2; #2 0.03
Dlip3: #1 -1.28
CG34112: #1 -0.33
CG34056: #1 0.4
CG43901: #1 0.5; #2 -0.09; #3 1.19; #4 0.46
